# According to paper doi:10.1101/2022.12.17.520852:
# Amino acid sequences for entries named in this document (tags omitted). A change or cut given only in a name is not applied to a line headed by its entry.
# UniProt P49023: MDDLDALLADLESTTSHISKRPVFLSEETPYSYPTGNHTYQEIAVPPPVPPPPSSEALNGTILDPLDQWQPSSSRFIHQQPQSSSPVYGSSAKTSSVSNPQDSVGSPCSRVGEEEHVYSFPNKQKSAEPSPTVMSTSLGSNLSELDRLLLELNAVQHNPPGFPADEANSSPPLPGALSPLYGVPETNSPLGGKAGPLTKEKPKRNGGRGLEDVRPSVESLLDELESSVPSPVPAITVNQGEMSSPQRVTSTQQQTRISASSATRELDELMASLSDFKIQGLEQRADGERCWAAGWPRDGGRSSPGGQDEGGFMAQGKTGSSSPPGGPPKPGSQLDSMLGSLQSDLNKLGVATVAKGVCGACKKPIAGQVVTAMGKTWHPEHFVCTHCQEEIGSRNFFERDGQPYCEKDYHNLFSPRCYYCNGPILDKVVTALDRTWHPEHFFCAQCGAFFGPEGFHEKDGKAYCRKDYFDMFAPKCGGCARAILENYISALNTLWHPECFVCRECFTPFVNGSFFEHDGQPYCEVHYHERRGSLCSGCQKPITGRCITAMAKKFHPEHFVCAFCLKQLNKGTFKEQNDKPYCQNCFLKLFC
# UniProt Q96AC1: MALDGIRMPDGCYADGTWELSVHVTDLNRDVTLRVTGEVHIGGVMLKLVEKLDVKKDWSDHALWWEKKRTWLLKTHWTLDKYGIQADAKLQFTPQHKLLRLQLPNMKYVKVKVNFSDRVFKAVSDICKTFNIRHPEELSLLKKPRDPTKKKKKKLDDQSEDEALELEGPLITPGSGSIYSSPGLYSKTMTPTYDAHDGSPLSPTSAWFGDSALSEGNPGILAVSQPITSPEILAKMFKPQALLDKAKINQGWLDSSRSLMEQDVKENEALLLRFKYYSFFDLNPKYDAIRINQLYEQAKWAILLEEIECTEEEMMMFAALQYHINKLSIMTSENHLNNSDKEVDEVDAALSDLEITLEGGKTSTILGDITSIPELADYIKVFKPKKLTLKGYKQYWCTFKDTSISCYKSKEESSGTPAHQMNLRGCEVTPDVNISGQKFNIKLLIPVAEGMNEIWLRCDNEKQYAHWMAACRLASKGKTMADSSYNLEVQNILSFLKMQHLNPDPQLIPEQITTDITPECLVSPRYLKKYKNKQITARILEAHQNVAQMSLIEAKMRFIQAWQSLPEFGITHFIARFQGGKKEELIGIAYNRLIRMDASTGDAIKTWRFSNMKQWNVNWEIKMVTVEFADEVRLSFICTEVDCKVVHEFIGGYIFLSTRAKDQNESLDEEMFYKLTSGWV
# No constants are given. Whether binding was seen depends on the method and setting. Binding can be weak; no strength is given.
# What was measured:
# [1] = biological target: recombinant PXN ΔIDR2 (purified) (UniProt P49023); assay: pull-down
# [2] = biological target: recombinant PXN ΔIDR1 (purified) (UniProt P49023); assay: pull-down
substance,measurement,setting,value
recombinant Kindlin-2 (purified) (from UniProt Q96AC1 1-680),binding,[1],binds
same,binding,[2],binds
